{"source": "PubChem BioAssay AID504774 | Drosophila RNAi Screening Center – 2011", "test": "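Knock-downs that shift viability of MMS-exposed cells relative to untreated ones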 (primary screen)", "cell system": "Drosophila Kc167 cells", "knock-down reagent": "long dsRNA against Drosophila genes, about 0.25 µg dsRNA per well", "duration": "about 6 days: 3 days knock-down, then 3 days with or without MMS", "challenge": "methyl methanesulphonate 0.004% (w/v) for 3 days after knock-down", "read-out": "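Viability in wells given MMS, read as ATP luminescence, normalised by quantiles plate by plate and averaged across replicates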", "reading the numbers": "mean viability with MMS: higher = more surviving cells after MMS", "note": "The screen tested about 23,000 reagents; below is an unselected part of those that have a named target and a result. 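Values are quantile-normalised luminescence on an arbitrary scale; higher means more cells surviving MMS.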 Reagents against one gene are numbered here. Names joined by + are all predicted targets of the reagent. Further read-outs or replicates are left out here."}
{"gene": "Bili", "reagent": 1, "mean viability with MMS": 3.23e6}
{"gene": "Nph", "reagent": 1, "mean viability with MMS": 3.60e6}
{"gene": "CG2975", "reagent": 1, "mean viability with MMS": 3.41e6}
{"gene": "Ir75a", "reagent": 1, "mean viability with MMS": 3.55e6}
{"gene": "CG42566", "reagent": 1, "mean viability with MMS": 3.54e6}
{"gene": "asrij", "reagent": 1, "mean viability with MMS": 3.58e6}
{"gene": "CG42570", "reagent": 1, "mean viability with MMS": 3.45e6}
{"gene": "CG10918", "reagent": 1, "mean viability with MMS": 3.48e6}
{"gene": "Moca-cyp", "reagent": 1, "mean viability with MMS": 3.55e6}
{"gene": "nompB", "reagent": 1, "mean viability with MMS": 3.38e6}
{"gene": "nompB", "reagent": 2, "mean viability with MMS": 3.61e6}
{"gene": "CG1607", "reagent": 1, "mean viability with MMS": 3.53e6}
{"gene": "CG5439", "reagent": 1, "mean viability with MMS": 3.67e6}
{"gene": "upd1", "reagent": 1, "mean viability with MMS": 3.55e6}
{"gene": "CG3795", "reagent": 1, "mean viability with MMS": 3.60e6}
{"gene": "CG9970", "reagent": 1, "mean viability with MMS": 3.45e6}
{"gene": "CG3040", "reagent": 1, "mean viability with MMS": 3.62e6}
{"gene": "side-IV + CG17025 (retired record)", "reagent": 1, "mean viability with MMS": 3.84e6}
{"gene": "Karybeta3", "reagent": 1, "mean viability with MMS": 3.32e6}
{"gene": "Ypel", "reagent": 1, "mean viability with MMS": 3.26e6}

7 consecutive records from above, for reference:
{"gene": "CG10918", "reagent": 1, "mean viability with MMS": 3.48e6}
{"gene": "Moca-cyp", "reagent": 1, "mean viability with MMS": 3.55e6}
{"gene": "nompB", "reagent": 1, "mean viability with MMS": 3.38e6}
{"gene": "nompB", "reagent": 2, "mean viability with MMS": 3.61e6}
{"gene": "CG1607", "reagent": 1, "mean viability with MMS": 3.53e6}
{"gene": "CG5439", "reagent": 1, "mean viability with MMS": 3.67e6}
{"gene": "upd1", "reagent": 1, "mean viability with MMS": 3.55e6}

Additional results follow:
{"gene": "Blimp-1", "reagent": 1, "mean viability with MMS": 3.56e6}
{"gene": "CG6689", "reagent": 1, "mean viability with MMS": 3.45e6}
{"gene": "CG10365", "reagent": 1, "mean viability with MMS": 3.76e6}
{"gene": "Or85b", "reagent": 1, "mean viability with MMS": 3.42e6}
{"gene": "Pss", "reagent": 1, "mean viability with MMS": 3.43e6}
{"gene": "CG8289", "reagent": 1, "mean viability with MMS": 3.75e6}
{"gene": "exp", "reagent": 1, "mean viability with MMS": 3.25e6}
{"gene": "CG5235", "reagent": 1, "mean viability with MMS": 3.65e6}
{"gene": "CG32847", "reagent": 1, "mean viability with MMS": 3.47e6}
{"gene": "Miga", "reagent": 1, "mean viability with MMS": 3.59e6}
{"gene": "CG31482", "reagent": 1, "mean viability with MMS": 3.57e6}
{"gene": "CG15728", "reagent": 1, "mean viability with MMS": 3.63e6}
{"gene": "CG15728", "reagent": 2, "mean viability with MMS": 3.19e6}
{"gene": "Ptpmeg2", "reagent": 1, "mean viability with MMS": 3.39e6}
{"gene": "Ptpmeg2", "reagent": 2, "mean viability with MMS": 3.44e6}
{"gene": "Ptpmeg2", "reagent": 3, "mean viability with MMS": 3.63e6}
{"gene": "lab", "reagent": 1, "mean viability with MMS": 3.36e6}
{"gene": "Kdm5", "reagent": 1, "mean viability with MMS": 3.40e6}
{"gene": "Pgm1", "reagent": 1, "mean viability with MMS": 3.58e6}
{"gene": "Pbp95", "reagent": 1, "mean viability with MMS": 3.47e6}
{"gene": "CG11110", "reagent": 1, "mean viability with MMS": 3.55e6}
{"gene": "Polr1B", "reagent": 1, "mean viability with MMS": 3.34e6}
{"gene": "CG7099", "reagent": 1, "mean viability with MMS": 3.46e6}
{"gene": "hng1", "reagent": 1, "mean viability with MMS": 3.73e6}
{"gene": "Sox14", "reagent": 1, "mean viability with MMS": 3.48e6}
